Results reported in the supplement of paper PMC12819154, “High-throughput peptide-centric local stability assay extends protein–ligand identification to membrane proteins, tissues and bacteria” (Nature Structural & Molecular Biology, 2025).
Some of the results follow. Small differences around the control level are noise.

Protein sequences, listed by entry. Tags and fused reporters are not part of them. Lines headed by an entry give the natural chain unless they say otherwise; changes in a name come on top.
UniProt Q9H5K3: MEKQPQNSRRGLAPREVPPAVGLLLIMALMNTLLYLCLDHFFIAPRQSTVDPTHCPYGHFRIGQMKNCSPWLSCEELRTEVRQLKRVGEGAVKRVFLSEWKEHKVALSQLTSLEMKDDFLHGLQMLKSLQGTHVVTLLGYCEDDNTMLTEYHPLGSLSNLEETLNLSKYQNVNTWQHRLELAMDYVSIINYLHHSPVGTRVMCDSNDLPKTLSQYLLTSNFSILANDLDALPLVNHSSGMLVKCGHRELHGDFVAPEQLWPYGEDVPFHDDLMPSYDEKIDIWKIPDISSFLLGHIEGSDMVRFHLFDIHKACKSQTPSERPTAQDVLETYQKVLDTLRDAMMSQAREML
UniProt Q9HA47: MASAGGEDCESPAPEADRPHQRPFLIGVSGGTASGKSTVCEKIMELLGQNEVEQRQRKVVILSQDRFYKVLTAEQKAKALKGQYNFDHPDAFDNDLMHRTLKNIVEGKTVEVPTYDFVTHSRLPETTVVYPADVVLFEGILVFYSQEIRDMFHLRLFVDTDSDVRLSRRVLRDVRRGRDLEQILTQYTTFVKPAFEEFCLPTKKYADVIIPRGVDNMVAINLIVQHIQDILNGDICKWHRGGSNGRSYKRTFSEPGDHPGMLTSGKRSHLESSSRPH
UniProt Q9H6Y2: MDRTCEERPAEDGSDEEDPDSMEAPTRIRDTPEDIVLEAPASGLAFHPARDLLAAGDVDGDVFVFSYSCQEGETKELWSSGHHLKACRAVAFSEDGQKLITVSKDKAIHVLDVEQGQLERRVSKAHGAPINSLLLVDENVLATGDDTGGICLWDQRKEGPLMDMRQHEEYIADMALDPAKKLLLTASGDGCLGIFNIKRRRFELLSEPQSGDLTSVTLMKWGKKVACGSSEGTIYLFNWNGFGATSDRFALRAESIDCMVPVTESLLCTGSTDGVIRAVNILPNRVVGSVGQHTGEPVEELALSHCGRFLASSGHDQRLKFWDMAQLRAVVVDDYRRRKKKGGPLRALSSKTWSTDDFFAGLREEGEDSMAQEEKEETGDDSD
UniProt Q9H6R4: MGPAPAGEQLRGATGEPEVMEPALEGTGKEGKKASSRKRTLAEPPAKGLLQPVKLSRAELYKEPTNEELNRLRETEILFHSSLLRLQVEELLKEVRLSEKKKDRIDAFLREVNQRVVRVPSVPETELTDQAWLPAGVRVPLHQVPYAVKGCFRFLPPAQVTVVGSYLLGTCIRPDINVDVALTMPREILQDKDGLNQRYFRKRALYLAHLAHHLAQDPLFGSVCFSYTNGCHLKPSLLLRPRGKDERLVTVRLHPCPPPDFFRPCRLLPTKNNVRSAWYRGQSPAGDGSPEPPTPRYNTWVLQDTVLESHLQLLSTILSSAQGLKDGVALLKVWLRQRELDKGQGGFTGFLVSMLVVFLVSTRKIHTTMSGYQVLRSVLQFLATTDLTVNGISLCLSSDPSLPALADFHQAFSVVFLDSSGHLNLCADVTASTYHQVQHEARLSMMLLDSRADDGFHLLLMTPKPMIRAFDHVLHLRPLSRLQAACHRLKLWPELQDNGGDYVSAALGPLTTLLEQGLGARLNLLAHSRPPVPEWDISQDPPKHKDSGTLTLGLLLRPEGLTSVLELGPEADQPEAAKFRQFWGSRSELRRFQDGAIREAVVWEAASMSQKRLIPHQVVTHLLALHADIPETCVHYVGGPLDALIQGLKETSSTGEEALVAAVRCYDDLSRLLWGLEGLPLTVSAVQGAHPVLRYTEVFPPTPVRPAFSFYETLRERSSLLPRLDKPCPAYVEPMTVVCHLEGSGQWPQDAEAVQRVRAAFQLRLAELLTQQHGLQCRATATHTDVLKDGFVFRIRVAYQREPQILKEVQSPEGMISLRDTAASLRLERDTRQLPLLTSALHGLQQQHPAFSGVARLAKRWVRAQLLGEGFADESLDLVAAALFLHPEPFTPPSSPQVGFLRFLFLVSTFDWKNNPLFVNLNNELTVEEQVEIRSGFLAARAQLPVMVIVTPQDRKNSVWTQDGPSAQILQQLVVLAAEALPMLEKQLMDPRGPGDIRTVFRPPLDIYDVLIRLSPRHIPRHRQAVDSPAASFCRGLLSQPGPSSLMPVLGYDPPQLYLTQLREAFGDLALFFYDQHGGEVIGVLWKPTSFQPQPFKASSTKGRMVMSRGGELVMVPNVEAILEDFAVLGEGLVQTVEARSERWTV
UniProt Q9H7M9, whole entry: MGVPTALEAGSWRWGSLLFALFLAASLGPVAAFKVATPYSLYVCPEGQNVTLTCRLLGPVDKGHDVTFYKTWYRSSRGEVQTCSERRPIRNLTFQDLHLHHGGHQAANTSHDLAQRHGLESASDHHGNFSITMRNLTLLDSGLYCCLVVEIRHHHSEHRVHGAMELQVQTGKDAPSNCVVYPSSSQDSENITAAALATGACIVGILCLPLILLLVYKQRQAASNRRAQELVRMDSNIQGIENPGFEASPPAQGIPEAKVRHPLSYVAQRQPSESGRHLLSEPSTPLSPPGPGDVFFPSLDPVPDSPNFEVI
UniProt Q9H1K0: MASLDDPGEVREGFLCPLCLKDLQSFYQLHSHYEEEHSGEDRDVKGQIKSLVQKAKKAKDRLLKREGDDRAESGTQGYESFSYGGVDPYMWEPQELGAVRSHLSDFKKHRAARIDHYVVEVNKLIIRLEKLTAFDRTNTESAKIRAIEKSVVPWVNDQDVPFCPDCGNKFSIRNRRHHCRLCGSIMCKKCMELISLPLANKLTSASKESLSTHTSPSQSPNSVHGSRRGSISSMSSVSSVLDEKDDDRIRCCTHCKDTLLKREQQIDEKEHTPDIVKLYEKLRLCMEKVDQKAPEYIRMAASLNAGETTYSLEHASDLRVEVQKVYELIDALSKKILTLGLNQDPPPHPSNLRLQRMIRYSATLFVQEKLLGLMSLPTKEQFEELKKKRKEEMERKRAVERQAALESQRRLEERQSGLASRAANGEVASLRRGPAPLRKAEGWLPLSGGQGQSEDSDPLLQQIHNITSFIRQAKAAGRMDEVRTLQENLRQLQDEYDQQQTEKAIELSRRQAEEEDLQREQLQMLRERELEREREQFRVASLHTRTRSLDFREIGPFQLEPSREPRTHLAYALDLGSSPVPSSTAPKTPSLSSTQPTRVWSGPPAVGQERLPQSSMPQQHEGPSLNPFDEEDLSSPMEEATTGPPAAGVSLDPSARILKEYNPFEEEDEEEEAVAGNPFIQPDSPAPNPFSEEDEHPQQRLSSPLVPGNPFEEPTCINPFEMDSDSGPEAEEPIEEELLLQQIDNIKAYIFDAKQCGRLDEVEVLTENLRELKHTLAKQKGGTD
UniProt Q9H9Y6, whole entry: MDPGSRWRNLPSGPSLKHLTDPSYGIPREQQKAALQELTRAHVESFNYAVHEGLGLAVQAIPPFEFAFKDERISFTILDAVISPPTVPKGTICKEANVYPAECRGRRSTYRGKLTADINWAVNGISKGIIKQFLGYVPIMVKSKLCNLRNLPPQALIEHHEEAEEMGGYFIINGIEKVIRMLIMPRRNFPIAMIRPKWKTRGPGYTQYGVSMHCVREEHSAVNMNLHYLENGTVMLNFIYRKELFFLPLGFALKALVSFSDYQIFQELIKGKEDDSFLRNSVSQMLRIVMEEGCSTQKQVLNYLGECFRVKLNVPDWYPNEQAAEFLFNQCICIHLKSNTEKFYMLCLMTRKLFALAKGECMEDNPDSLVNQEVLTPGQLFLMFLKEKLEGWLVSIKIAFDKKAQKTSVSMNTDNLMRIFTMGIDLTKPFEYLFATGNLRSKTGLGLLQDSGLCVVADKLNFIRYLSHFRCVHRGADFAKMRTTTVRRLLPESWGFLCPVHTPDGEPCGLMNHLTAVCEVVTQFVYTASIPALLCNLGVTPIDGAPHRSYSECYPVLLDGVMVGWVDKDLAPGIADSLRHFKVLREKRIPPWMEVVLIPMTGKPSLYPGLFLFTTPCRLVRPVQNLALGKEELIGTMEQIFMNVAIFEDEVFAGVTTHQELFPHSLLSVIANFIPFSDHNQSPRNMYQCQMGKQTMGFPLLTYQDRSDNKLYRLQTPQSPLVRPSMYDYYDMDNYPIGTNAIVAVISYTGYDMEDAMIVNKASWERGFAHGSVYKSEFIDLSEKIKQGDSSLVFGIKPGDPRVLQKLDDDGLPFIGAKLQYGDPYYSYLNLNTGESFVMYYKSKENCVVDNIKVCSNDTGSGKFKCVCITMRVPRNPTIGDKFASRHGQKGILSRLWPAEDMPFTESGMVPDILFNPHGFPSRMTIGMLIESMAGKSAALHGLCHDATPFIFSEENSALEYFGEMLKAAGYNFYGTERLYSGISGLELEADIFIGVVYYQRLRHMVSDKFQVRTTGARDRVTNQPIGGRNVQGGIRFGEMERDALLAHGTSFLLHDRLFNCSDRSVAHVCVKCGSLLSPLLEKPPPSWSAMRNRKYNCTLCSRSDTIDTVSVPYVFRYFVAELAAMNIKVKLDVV
UniProt Q9HBD1: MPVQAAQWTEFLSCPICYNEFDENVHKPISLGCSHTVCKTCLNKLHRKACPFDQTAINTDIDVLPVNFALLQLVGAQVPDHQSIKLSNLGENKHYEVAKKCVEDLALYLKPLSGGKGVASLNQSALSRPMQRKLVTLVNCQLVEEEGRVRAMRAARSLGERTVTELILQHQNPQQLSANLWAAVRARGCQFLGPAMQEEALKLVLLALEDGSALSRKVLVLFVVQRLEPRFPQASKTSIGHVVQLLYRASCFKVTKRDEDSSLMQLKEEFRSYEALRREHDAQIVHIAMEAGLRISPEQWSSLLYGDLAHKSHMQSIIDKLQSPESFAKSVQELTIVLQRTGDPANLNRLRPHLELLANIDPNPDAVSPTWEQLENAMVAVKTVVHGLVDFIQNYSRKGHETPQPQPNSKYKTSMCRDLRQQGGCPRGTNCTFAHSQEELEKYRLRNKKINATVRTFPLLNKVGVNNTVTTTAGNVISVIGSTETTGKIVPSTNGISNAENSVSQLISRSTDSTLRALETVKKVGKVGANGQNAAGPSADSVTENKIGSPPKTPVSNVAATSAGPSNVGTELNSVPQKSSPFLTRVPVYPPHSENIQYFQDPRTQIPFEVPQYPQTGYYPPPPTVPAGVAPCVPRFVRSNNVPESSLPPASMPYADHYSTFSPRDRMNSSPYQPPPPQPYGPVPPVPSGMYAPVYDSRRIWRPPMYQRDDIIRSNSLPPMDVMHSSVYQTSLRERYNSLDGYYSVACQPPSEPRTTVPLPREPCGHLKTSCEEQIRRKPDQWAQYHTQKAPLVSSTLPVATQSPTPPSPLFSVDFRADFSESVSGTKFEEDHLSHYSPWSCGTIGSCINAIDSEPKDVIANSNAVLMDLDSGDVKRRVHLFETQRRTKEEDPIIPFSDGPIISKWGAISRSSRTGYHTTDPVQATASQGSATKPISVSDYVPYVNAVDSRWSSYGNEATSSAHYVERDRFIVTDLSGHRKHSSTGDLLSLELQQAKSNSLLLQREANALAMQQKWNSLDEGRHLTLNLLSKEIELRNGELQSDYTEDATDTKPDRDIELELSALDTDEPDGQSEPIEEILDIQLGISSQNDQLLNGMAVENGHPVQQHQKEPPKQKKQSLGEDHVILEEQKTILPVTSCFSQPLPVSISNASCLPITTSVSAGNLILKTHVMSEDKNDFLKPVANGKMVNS
UniProt Q9HAW0, whole entry: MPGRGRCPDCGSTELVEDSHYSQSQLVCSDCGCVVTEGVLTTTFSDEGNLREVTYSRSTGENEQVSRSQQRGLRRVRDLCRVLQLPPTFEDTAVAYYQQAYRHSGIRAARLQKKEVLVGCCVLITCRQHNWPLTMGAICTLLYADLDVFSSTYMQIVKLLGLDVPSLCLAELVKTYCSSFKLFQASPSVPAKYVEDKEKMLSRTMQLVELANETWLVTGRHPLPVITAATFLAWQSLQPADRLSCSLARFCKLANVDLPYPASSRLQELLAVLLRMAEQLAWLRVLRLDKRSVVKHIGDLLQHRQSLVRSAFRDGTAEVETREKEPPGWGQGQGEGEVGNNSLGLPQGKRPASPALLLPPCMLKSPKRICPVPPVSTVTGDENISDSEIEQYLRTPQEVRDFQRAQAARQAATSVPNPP
UniProt Q9HBL8: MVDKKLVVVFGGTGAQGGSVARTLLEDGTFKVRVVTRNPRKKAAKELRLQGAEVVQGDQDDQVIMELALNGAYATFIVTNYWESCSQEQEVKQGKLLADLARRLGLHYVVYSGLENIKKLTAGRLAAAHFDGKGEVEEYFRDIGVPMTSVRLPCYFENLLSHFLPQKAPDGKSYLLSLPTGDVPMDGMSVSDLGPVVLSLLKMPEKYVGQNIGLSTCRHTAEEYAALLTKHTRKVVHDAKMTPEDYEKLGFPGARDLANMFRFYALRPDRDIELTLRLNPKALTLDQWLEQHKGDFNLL
UniProt Q9H3K6: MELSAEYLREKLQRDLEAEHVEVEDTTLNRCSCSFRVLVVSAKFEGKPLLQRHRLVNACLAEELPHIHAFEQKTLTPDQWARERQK
UniProt Q9H299: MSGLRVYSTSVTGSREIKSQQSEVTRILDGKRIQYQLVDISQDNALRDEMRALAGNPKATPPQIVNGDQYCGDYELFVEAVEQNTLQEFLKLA

Compound: Cc1nc(Nc2ncc(C(=O)Nc3c(C)cccc3Cl)s2)cc(N2CCN(CCO)CC2)n1 [dasatinib]
Experiment: log2 fold change of tryptic peptide abundance, ligand vs vehicle (limited proteolysis) (log2 ratio); higher = more trypsin-susceptible (destabilized)
Details: ligand concentration: 5 uM; sample: K562 cleared lysate

How did the log2 fold change turn out when “UniProt Q9H5K3 (peptide sequence: VGEGAVK, peptide start residue: 87)” was run?
The log2 fold change was -0.207.

How did the log2 fold change turn out when “UniProt Q9HAQ2 (peptide sequence: INLVDLAGSER, peptide start residue: 249)” was run?
The log2 fold change was 0.0104.

How did the log2 fold change turn out when “UCK1 (peptide sequence: VVILSQDR, peptide start residue: 59) (UniProt Q9HA47)” was run?
Its log2 fold change is 0.299.

How did the log2 fold change turn out when “ACBD3 (peptide sequence: EDAMVEFVK, peptide start residue: 155) (UniProt Q9H3P7)” was run?
The log2 fold change was -0.53.

How did the log2 fold change turn out when “WDR55 (peptide sequence: IRDTPEDIVLEAPASGLAFHPAR, peptide start residue: 28) (UniProt Q9H6Y2)” was run?
Its log2 fold change is 0.145.

For “PLEKHA2 (peptide sequence: YFLQANDQK, peptide start residue: 91) (UniProt Q9HB19)”, which log2 fold change is on record?
The log2 fold change was 0.289.

With “SLC38A1 (peptide sequence: SLTNSHLEK, peptide start residue: 52) (UniProt Q9H2H9)” as the target, how does the log2 fold change read?
Its log2 fold change is -0.125.

With “IFT122 (peptide sequence: DSIGDEDPFTAK, peptide start residue: 1142) (UniProt Q9HBG6)” as the target, how does the log2 fold change read?
The log2 fold change was -0.287.

Which log2 fold change does the source give for “NOL6 (peptide sequence: EILQDKDGLNQR, peptide start residue: 187) (UniProt Q9H6R4)” here?
Its log2 fold change is -0.292.

For “PLEKHA5 (peptide sequence: STTWLHPVTGEAVVTGHRR, peptide start residue: 35) (UniProt Q9HAU0)”, which log2 fold change is on record?
Its log2 fold change is 0.192.

“UniProt Q9H7M9 (peptide sequence: VRHPLSYVAQR, peptide start residue: 259)” was tested. Which log2 fold change did it give?
The log2 fold change was -0.141.

“UniProt Q9H1K0 (peptide sequence: TPSLSSTQPTR, peptide start residue: 588)” was tested. Which log2 fold change did it give?
Its log2 fold change is -0.119.

With “POLR1B (peptide sequence: LFNCSDR, peptide start residue: 1058) (UniProt Q9H9Y6)” as the target, how does the log2 fold change read?
The log2 fold change was -0.0982.

For “RC3H2 (peptide sequence: KQSLGEDHVILEEQK, peptide start residue: 1117) (UniProt Q9HBD1)”, which log2 fold change is on record?
Its log2 fold change is 0.603.

Which log2 fold change does the source give for “BRF2 (peptide sequence: YVEDKEK, peptide start residue: 193) (UniProt Q9HAW0)” here?
Its log2 fold change is -0.461.

For “JPT2 (peptide sequence: MFQVPDSEGGR, peptide start residue: 1) (UniProt Q9H910)”, which log2 fold change is on record?
Its log2 fold change is -0.199.

For “ACTL8 (peptide sequence: EEYGEHMR, peptide start residue: 358) (UniProt Q9H568)”, which log2 fold change is on record?
Its log2 fold change is 0.0765.

Which log2 fold change does the source give for “UniProt Q9H4I8 (peptide sequence: SNSHLSEECGELLLQR, peptide start residue: 182)” here?
The log2 fold change was -0.283.

With “NMRAL1 (peptide sequence: MTPEDYEKLGFPGAR, peptide start residue: 241) (UniProt Q9HBL8)” as the target, how does the log2 fold change read?
Its log2 fold change is 0.319.

With “CUEDC2 (peptide sequence: GPQKDELK, peptide start residue: 206) (UniProt Q9H467)” as the target, how does the log2 fold change read?
The log2 fold change was -1.11.

How did the log2 fold change turn out when “DHX35 (peptide sequence: SNLAPVILQLK, peptide start residue: 425) (UniProt Q9H5Z1)” was run?
The log2 fold change was -0.573.

How did the log2 fold change turn out when “BOLA2 (peptide sequence: TLTPDQWARER, peptide start residue: 74) (UniProt Q9H3K6)” was run?
Its log2 fold change is -0.239.

“CCDC86 (peptide sequence: GQHEPSKPPPAGETVTGGFGAKK, peptide start residue: 191) (UniProt Q9H6F5)” was tested. Which log2 fold change did it give?
The log2 fold change was -0.557.

For “SAV1 (peptide sequence: LSAPSYLAR, peptide start residue: 93) (UniProt Q9H4B6)”, which log2 fold change is on record?
The log2 fold change was -0.148.

Which log2 fold change does the source give for “ZNF552 (peptide sequence: SFTHSSTFR, peptide start residue: 332) (UniProt Q9H707)” here?
The log2 fold change was 0.561.

How did the log2 fold change turn out when “UniProt Q9H2L5 (peptide sequence: LKEEEER, peptide start residue: 351)” was run?
The log2 fold change was -0.0104.

With “SH3BGRL3 (peptide sequence: SQQSEVTR, peptide start residue: 19) (UniProt Q9H299)” as the target, how does the log2 fold change read?
Its log2 fold change is 0.0812.

With “UniProt Q9HBZ2 (peptide sequence: ENHSEIER, peptide start residue: 92)” as the target, how does the log2 fold change read?
Its log2 fold change is -0.0842.

With “UniProt Q9H330 (peptide sequence: AVGPSGGGGETPR, peptide start residue: 26)” as the target, how does the log2 fold change read?
The log2 fold change was 0.00469.
